# Data as given in PubChem BioAssay AID493014 (National Center for Advancing Translational Sciences (NCATS), 2011).
# The other results are listed elsewhere or left out. The main result of the screen is listed elsewhere. These columns were measured beside it and carry no call. Compounds called inactive in the main read-out are mostly missing here. Words in brackets tell the shape of the fitted curve; partial curves, single points and poor fits give uncertain potencies.
# Assay: qHTS Assay to Find Inhibitors of Chronic Active B-Cell Receptor Signaling
# Conditions: ABC-DLBCL IkBa-CBG/CBR reporter, luminescence ratio (green luciferase fused to IkBa over red control in TMD8 lymphoma cells), 4 h
# Procedure, shortened: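 Cell line TMD8 (human ABC DLBCL), stably expressing tet-inducible CBG68-IkBa fusion and CBR; IMDM/0.5% FBS; cpd up to 46 uM; dox induction, 4 h, 37C/5% CO2; dual luminescence; green/red ratio; MG132 control.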
# [1] = measured here: CBR red luminescence, cell number
# [2] = measured here: IkBa-CBG green luminescence
SMILES,AC50 [1],AC50 [2]
Cc1nnc2c(NCCc3ccccc3)nc3ccccc3n12,"25.1 µM [rising, single point]",–
CCC(NC(=O)NNC(N)=S)(C(F)(F)F)C(F)(F)F,"11.2 µM [falling, partial curve]","35.5 µM [falling, single point]"
CCSc1nc2c(cnn2-c2ccccc2)c(=O)n1N,"14.1 µM [falling, single point]",–
CCN1C(=O)/C(=C\N(C(C)=O)c2ccccc2)OC1=S,"7.31 µM [falling, partial curve]",–
COc1ccc(/C=N/N=C(\N)c2nonc2N)cc1OC,"15.8 µM [falling, partial curve]",–
Cc1ccc(S(=O)(=O)N2CCC(CN3C(=O)c4cccc5cccc(c45)C3=O)CC2)cc1,"5.62 µM [falling, single point]",–
CCn1c(SCC(=O)Nc2cc(C)on2)nnc1-c1c[nH]c2ccccc12,"11.2 µM [falling, partial curve, poor fit]",–
CCN(CC(=O)Nc1ccc(NC(C)=O)cc1)C(=O)CSc1ncnc2sc(C)c(C)c12,"29.1 µM [rising, partial curve, poor fit]",–
Cc1ccc(-c2noc(CN(C(=O)c3cccs3)C(C)C)n2)cc1,"1.84 µM [rising, full curve]",–
Cc1cc(NC(=O)c2ccc(S(=O)(=O)N(C)C)cc2)no1,"8.2 µM [falling, partial curve, poor fit]",–
COc1ccc(OCCCCOc2ccccc2Cl)cc1,"10 µM [rising, partial curve]",–
NS(=O)(=O)c1cc(C(=O)N2CCc3ccccc32)c(Cl)cc1Cl,"9.2 µM [rising, partial curve, poor fit]",–
Cc1ccsc1/C=N/n1c(=S)[nH]nc(C)c1=O,"25.9 µM [rising, single point]",–
NC(=S)N/N=C/c1ccc(OC(=O)c2cccnc2)cc1,"25.1 µM [falling, single point]",–
CC12CCC(=O)N1C(C(=O)Nc1nc3ccc(F)cc3s1)CS2 (stereo not drawn),"29.1 µM [rising, single point]",–
O=C(CSc1ncnc2sccc12)Nc1ccccc1,"31.6 µM [falling, single point]",–
Cc1nc(SCC(=O)NC2CCS(=O)(=O)C2)c2c3c(sc2n1)CCCC3 (stereo not drawn),"23.1 µM [rising, partial curve, poor fit]",–
O=C(NC(=S)NC1CCSC1=O)c1cccs1 (stereo not drawn),–,"32.6 µM [falling, partial curve, poor fit]"
Cc1ccc(Cn2c(N/N=C/c3ccncc3)nc3c2c(=O)n(C)c(=O)n3C)cc1,"3.16 µM [rising, single point]",–
CCc1ccc2c(CC(=O)Nc3cccc(S(=O)(=O)N4CCOCC4)c3)coc2c1,"29.1 µM [falling, single point]",–
Fc1cccc(NC(=S)N2CCCC2)c1,"25.9 µM [rising, single point]",–
CCCCN(C)S(=O)(=O)c1c(C)[nH]c(=O)[nH]c1=O,"1.64 µM [rising, full curve, poor fit]",–

SMILES,AC50 [1],AC50 [2]
O=C(N/N=C/c1cccc([N+](=O)[O-])c1)c1ccc2nc[nH]c2c1,"29.1 µM [falling, single point]",–
CC(=O)NC1(C(F)(F)F)NC(=O)N(c2ccc(F)cc2)C1=O (stereo not drawn),"3.55 µM [rising, single point]",–
CCOC(=O)N1CCC(Nc2nc3ccccc3n3nnnc23)CC1,"1.78 µM [falling, full curve]",–
COc1ccccc1C(=O)NC(=S)Nc1ccc(Cc2ccncc2)cc1,"12.6 µM [falling, single point]",–
Cc1ccc(NC(=O)c2ccccc2SCC(=O)N2CCCC2)cc1S(=O)(=O)N(C)C,"0.794 µM [rising, full curve, poor fit]",–
Cc1nc(SCC(=O)c2ccc(F)cc2)n[nH]1,"35.5 µM [rising, single point]",–
O=C(/C=C/c1ccc(-c2ccccc2[N+](=O)[O-])o1)c1ccc(F)cc1,"35.5 µM [falling, single point]",–
N#CCCN(Cc1cccnc1)C(=S)NC(=O)c1ccco1,"10 µM [falling, partial curve, poor fit]",–
S=c1nc[nH]c2c1[nH]c1ccc(Cl)cc12,"3.55 µM [rising, single point]",–
CCc1ccc(C(=O)NNC(=S)Nc2ccc(S(N)(=O)=O)cc2)s1,"11.2 µM [falling, partial curve]",–
O=C1CCCN1C(=O)CSc1ccc2ccccc2n1,"4.11 µM [rising, full curve, poor fit]",–
CCOC(=O)c1ccc(-n2c(N)c(C(=O)NCc3ccco3)sc2=S)cc1,"12.6 µM [rising, single point]",–
COc1ccc(Nc2nc(-c3c(C)nc4ncccn34)cs2)cc1,–,"2.82 µM [falling, full curve]"
Cc1ccccc1S(=O)(=O)NNC(=O)C(=O)NNc1ccccn1,"4.11 µM [falling, full curve]",–
O=C(c1cc(=O)c2ccccc2o1)N1CCN(c2cccc(Cl)c2)CC1,"4.47 µM [falling, full curve, poor fit]",–
O=C(NCc1ccco1)C1CCCN1C(=O)Nc1ccccc1Cl (stereo not drawn),"11.2 µM [rising, single point]",–
CCCCSCCCNC(=O)Nc1cccc(OC)c1,"0.291 µM [falling, full curve, poor fit]",–
CN(C)S(=O)(=O)c1cccc(NC(=O)CCCSc2ccccc2)c1,"10 µM [falling, partial curve, poor fit]",–
Cc1ccc(Nc2nc(-c3sc(NC(=O)c4cccc(Cl)c4)nc3C)cs2)cc1,"12.6 µM [falling, partial curve]",–
COc1ccc(/C(N)=N/OC(=O)CC2CCCCC2)cc1,"2.82 µM [rising, full curve]",–
COc1ccc(Oc2ccc(C(F)(F)F)cc2N)cc1,"7.94 µM [rising, partial curve]",–
COc1ccc(OC)c2sc(N(CCCN(C)C)C(=O)c3ccc(S(=O)(=O)N4CCc5ccccc5C4)cc3)nc12,"25.9 µM [falling, partial curve, poor fit]","18.4 µM [rising, partial curve, poor fit]"

# Single records, as listed above:
# `COc1ccc(OC)c2sc(N(CCCN(C)C)C(=O)c3ccc(S(=O)(=O)N4CCc5ccccc5C4)cc3)nc12` as listed: AC50 [1]: 25.9 µM [falling, partial curve, poor fit]; AC50 [2]: 18.4 µM [rising, partial curve, poor fit]
# `COc1ccc(Oc2ccc(C(F)(F)F)cc2N)cc1` as listed: AC50 [1]: 7.94 µM [rising, partial curve]
# `CCCCSCCCNC(=O)Nc1cccc(OC)c1` as listed: AC50 [1]: 0.291 µM [falling, full curve, poor fit]
# `Cc1ccc(Nc2nc(-c3sc(NC(=O)c4cccc(Cl)c4)nc3C)cs2)cc1` as listed: AC50 [1]: 12.6 µM [falling, partial curve]

# (further entries)

SMILES,AC50 [1],AC50 [2]
COc1cc(OC)cc(C(=O)Nc2nnc(SCC(=O)NCC3CCCO3)s2)c1 (stereo not drawn),"3.16 µM [rising, single point]",–
COc1cccc(-c2nnc3n2N=C(c2cc(OC)ccc2OC)CS3)c1,"3.98 µM [rising, single point]",–
CSc1ccccc1NC(=O)C1CC(c2ccccc2Cl)=NO1 (stereo not drawn),"8.91 µM [falling, partial curve]",–
O=C1CCCCCCC1Sc1ccccc1[N+](=O)[O-] (stereo not drawn),"4.11 µM [falling, full curve, poor fit]",–
CCOC(=O)COc1ccc(S(=O)(=O)N2CCN(c3ccc(OC)cc3)CC2)cc1,"3.55 µM [rising, single point]",–
Cc1ccc(-c2nc(NCCN(C)C)c3ccccc3n2)cc1,"35.5 µM [falling, single point]",–
CC(=O)[C@@H]1[C@@H]2C(=O)N(Cc3ccccc3)C(=O)[C@@H]2C2c3ccccc3C=CN21 (stereo partly drawn),"28.2 µM [falling, partial curve, poor fit]",–
CCc1ccc(-c2ccc3nnc(SCC(=O)Nc4cccc(C(C)=O)c4)n3n2)cc1,"5.62 µM [rising, single point]",–
O=C(/C=C/c1ccccc1)NC(=S)Nc1cccnc1,"10 µM [rising, partial curve, poor fit]",–
CSc1ccc(CNc2nc3ccccc3n3cnnc23)cc1,"0.708 µM [rising, full curve, poor fit]",–
CCOP(=O)(OCC)C(NCc1ccccc1)c1ccc(Br)cc1 (stereo not drawn),"14.6 µM [falling, single point]",–
COc1ccc(S(=O)(=O)N2CCOCC2)cc1NC(=O)/C=C/c1ccc(F)cc1,"1.84 µM [rising, partial curve, poor fit]","18.4 µM [falling, partial curve, poor fit]"
CN(C)CCNC=C(C(=O)Nc1ccc(Cl)cc1Cl)C(=O)Nc1ccc(Cl)cc1Cl,"16.4 µM [rising, partial curve, poor fit]",–
CCCNC(=O)Cn1c(=O)cc(C)c2c(C)nn(-c3cccc(F)c3)c21,"20 µM [falling, partial curve, poor fit]",–
O=C(NCCN1C(=O)CSC1=O)C1CC(=O)N(c2ccccc2)C1 (stereo not drawn),"2.91 µM [rising, single point]",–
NNc1nc(N)c2c(n1)-c1ccccc1CC21CCCC1,"9.2 µM [falling, partial curve]",–
COc1ccc2cc(C(=O)NCc3ccccc3)c(=Nc3ccc(C(=O)O)cc3)oc2c1,"0.447 µM [falling, full curve, poor fit]",–
CN(CC(=O)Nc1ccc(S(=O)(=O)N2CCCC2)cc1)CC(=O)Nc1ccc(F)c(F)c1F,"17.8 µM [falling, partial curve, poor fit]",–
COc1ccccc1NC(=O)C1C2C=CC(O2)C1C(=O)O (stereo not drawn),"35.5 µM [falling, single point]",–
COc1ccc(CC(=S)NCCc2ccccc2)cc1,"7.08 µM [rising, full curve, poor fit]",–
CC(NC(=O)C1CCCN1S(=O)(=O)c1ccc2c(c1)n(C)c(=O)c(=O)n2C)c1ccccc1 (stereo not drawn),"35.5 µM [rising, single point]",–
